Test results from patent US10538534B2 (Colorado State University Research Foundation, priority 2015, dated 2020).
For at least one compound, name, drawing or mass did not settle the structure. Some results were stated once for a whole list of compounds, not compound by compound.

Protein sequences, listed by entry. Tags and fused reporters are not part of them. Lines headed by an entry give the natural chain unless they say otherwise; changes in a name come on top.
UniProt O15379: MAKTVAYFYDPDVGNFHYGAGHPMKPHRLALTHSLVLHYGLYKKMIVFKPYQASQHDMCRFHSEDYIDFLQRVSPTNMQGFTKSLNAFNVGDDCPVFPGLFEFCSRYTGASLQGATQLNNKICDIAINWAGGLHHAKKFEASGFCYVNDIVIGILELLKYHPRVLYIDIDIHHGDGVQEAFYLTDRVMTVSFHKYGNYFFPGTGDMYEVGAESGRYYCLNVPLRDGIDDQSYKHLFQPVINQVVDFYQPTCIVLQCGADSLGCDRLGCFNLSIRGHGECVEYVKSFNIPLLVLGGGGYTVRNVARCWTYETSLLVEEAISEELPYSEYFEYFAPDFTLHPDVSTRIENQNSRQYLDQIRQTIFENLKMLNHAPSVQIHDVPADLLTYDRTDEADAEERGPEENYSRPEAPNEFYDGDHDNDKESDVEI
UniProt Q13547, whole entry: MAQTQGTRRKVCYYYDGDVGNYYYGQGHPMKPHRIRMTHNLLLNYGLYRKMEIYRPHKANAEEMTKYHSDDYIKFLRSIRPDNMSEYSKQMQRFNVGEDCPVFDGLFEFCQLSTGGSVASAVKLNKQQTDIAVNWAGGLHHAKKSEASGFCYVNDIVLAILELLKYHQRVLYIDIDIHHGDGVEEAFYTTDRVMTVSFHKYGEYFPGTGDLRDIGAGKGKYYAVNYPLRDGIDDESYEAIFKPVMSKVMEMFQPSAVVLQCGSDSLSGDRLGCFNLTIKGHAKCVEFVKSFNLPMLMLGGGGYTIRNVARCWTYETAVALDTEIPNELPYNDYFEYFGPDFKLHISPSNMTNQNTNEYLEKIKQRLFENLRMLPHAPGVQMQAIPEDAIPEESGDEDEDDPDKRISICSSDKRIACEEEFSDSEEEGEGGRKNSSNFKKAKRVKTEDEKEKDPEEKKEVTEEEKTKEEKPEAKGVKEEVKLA
UniProt Q92769, whole entry: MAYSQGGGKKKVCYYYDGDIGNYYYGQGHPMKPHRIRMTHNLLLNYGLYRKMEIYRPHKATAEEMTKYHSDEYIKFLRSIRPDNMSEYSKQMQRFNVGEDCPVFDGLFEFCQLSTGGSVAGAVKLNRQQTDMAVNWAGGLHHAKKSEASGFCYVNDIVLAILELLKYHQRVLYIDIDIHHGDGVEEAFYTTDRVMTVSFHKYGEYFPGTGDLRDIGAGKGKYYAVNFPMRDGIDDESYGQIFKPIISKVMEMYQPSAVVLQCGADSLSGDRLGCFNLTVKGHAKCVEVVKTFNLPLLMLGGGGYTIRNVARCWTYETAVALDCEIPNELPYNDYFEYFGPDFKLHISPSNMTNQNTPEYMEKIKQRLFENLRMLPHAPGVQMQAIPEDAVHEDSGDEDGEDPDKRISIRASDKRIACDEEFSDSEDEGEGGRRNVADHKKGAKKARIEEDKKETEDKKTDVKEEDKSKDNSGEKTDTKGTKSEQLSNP
UniProt Q9BY41: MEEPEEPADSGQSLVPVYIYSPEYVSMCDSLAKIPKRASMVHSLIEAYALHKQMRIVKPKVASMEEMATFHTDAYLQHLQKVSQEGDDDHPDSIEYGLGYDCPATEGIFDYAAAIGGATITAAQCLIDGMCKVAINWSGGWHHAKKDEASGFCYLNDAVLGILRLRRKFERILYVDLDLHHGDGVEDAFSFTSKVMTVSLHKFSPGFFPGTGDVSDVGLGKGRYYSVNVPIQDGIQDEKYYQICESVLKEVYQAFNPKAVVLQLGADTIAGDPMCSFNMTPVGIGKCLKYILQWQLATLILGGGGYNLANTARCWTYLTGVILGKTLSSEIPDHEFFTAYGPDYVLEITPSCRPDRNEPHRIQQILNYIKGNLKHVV

Tests used:
HDAC3 = HDAC3 (Homo sapiens, UniProt O15379); assay: Biochemical profiling for HDACi activity, miniaturized assay platform (HDAC1-9); conditions: stated for HDACs 1-3
HDAC1 = HDAC1 (Homo sapiens, UniProt Q13547); assay: as above; conditions: stated for HDACs 1-3
HDAC2 = HDAC2 (Homo sapiens, UniProt Q92769); assay: as above; conditions: stated for HDACs 1-3
[1] = system: transformed and non-transformed human- and murine-derived cell lines; conditions: transformed versus non-transformed cell lines; cited from earlier work
HDAC8 = HDAC8 (Homo sapiens, UniProt Q9BY41); assay: HDAC8

CCCCCCCC(=O)SCC/C=C/C1CC(=O)NCc2nc(c(-c3ccc(CO)cc3)s2)C2=N[C@@](C)(CS2)C(=O)NC(C(C)C)C(=O)N1 (some centres unmarked) [Compound 5]
IC50 (HDAC3): < 25 nM | IC50 (HDAC1): < 25 nM | IC50 (HDAC2): < 25 nM

CCCCCCCC(=O)SCC/C=C/[C@@H]1CC(=O)NCc2nc(cs2)C2=N[C@@](C)(CS2)C(=O)N[C@@H](C(C)C)C(=O)O1 [Largazole]
differential growth inhibition [1]: two- to ten-fold

CCCCCCCC(=O)SCC/C=C/[C@H]1CC(=O)NCc2nc(cs2)C2=N[C@](C)(CS2)C(=O)N[C@H](C(C)C)C(=O)O1 [compound 1]
IC50 (HDAC8): 2.8 nM
